# Results reported in paper PMC11833080.
# The chains behind the UniProt entries cited, without tags or fusion partners.
# UniProt O76083: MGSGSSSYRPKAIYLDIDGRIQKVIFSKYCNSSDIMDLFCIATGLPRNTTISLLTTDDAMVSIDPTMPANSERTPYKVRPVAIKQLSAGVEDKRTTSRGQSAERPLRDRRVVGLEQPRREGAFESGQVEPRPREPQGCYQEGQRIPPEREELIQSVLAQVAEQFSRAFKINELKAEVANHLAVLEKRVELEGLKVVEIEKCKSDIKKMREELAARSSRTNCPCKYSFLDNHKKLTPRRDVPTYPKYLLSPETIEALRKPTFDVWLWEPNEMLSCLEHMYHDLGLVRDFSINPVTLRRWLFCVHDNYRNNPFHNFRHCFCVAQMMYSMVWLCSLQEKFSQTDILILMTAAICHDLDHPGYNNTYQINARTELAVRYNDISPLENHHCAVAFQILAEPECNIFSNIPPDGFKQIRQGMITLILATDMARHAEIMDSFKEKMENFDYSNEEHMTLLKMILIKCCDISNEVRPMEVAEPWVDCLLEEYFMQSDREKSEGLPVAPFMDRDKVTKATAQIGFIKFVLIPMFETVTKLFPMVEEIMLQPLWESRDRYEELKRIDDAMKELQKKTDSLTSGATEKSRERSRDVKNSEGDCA
# UniProt Q9UNE7: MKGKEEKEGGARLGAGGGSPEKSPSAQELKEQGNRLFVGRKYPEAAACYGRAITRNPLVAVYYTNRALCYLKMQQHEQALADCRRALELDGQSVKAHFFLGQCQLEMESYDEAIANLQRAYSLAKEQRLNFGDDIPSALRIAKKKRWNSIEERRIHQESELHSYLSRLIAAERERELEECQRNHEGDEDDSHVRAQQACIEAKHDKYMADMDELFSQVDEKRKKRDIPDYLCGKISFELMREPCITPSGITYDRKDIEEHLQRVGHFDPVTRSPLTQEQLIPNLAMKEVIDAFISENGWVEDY
# No constants are given. Whether binding was seen depends on the method and setting. In cells and extracts the contact can be indirect. Some binding calls cover weakened binding; strength is not graded here.
# Biological target: V5-His-PDE9A (phosphodiesterase 9A) (human) (UniProt O76083)
# Test: co-IP; HEK293T cells transfected with plasmids; NP-40 lysis buffer; lysate precleared with Protein A+G magnetic beads; immunoprecipitation with V5-rabbit antibody (10 µg), 4 °C; western blot with Flag-mouse antibody
substance,measurement,value
"Flag-CHIP (carboxyl terminus of Hsc70-interacting protein, STUB1), wild type (from UniProt Q9UNE7 1-303) (enzyme)",binding,binds
